Construct, isoform or probe ends are uncertain for at least one entry. Negatives hold for the conditions tested. At least one verdict was read from the data and is not stated in words by the source. A weaker result is weaker than the reference pair of the same experiment.

Sequences of proteins named here, by UniProt entry; tags and fusion partners are left off. A change or cut given only in a name is not applied to a line headed by its entry.
UniProt P51608: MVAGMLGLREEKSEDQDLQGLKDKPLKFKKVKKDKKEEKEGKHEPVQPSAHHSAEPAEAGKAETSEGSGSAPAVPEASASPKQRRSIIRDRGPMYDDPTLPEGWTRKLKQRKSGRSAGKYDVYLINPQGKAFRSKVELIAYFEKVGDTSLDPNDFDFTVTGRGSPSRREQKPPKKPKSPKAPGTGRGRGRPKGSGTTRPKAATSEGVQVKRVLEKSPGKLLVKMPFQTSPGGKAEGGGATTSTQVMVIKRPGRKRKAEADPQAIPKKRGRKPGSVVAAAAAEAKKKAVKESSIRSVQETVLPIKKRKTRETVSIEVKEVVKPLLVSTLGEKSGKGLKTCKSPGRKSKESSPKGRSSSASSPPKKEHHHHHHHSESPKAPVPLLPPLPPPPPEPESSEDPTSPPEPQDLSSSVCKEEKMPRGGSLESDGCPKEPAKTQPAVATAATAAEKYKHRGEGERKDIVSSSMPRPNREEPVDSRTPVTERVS

The values that follow come from PMC11415397, “The Alpha-Synuclein Gene (SNCA) is a Genomic Target of Methyl-CpG Binding Protein 2 (MeCP2)—Implications for Parkinson’s Disease and Rett Syndrome”.

The target in the data set is MeCP2 wild type (UniProt P51608). The data set is described as follows: EMSA. Conditions: 10 mM Tris pH 7.5, 1 mM EDTA, 100 mM KCl, 100 uM DTT, 5% glycerol, 10 ug/ml BSA, 30 min room temperature, 50 fmol probe in 5 ul, MeCP2 30-75, recombinant protein, protein details: His, label: IRDye700 at 5' of LUEGO (S27).
The mark [1] stands for this setting: shift only with methylated probe (legend: predominantly).

Take “GTGCCCTGGTCTGG / CTGGCTTTCGTCCTGCTTCTGATATTCCCTTCTC / GAGAAGGGAATATCAGAAGCAGGACGAAAGCCAGCCAGACCAGGGCAC [SNCA intron 1 CpG1 probe, unmethylated]”: the binding result under setting [1] is “no binding”.

For “GTGCCCTGGTCTGG / GCTGAGAGATTAGGCTGCTTCTCCGGGATCCGC / GCGGATCCCGGAGAAGCAGCCTAATCTCTCAGCCCAGACCAGGGCAC [SNCA intron 1 CpG2 probe, methylated]”, the binding result (weak or almost undetectable in titration, Fig S2 text reports increased binding at 50 nmol, CpG 5mC, in vitro methylated (enzyme for the probe not stated in EMSA section)) is on record as “binds more weakly”.

Take “GTGCCCTGGTCTGG / GCTGAGAGATTAGGCTGCTTCTCCGGGATCCGC / GCGGATCCCGGAGAAGCAGCCTAATCTCTCAGCCCAGACCAGGGCAC [SNCA intron 1 CpG2 probe, unmethylated]”: under setting [1], the binding result is reported as “no binding”.
